# Values of other authors as cited in US20220233487A1, “PREPARATION FOR USE IN WEIGHT MANAGEMENT COMPRISING OMEGA-3 FATTY ACID SALTS AND BASIC AMINO ACIDS” (Evonik Operations GmbH, priority 2019, published 2022).
smiles,measurement,value
NCCC[C@H](N)C(=O)O [L-ornithine],pKa-values: pKCOOH,pKCOOH: 1.94
same,pKa-values: pKalpha-NH2,pKalpha-NH2: 8.65
same,pKa-values: pKdelta-NH2,pKdelta-NH2: 10.76
